Assay results taken from PubChem BioAssay AID493014 (National Center for Advancing Translational Sciences (NCATS), 2011).
Where “and” joins values, the source holds several entries; their conditions need not be identical. Equal values may be shown once. This is one part of the list. The main result of the screen is listed elsewhere. These columns were measured beside it and carry no call. The list favours compounds with an active or inconclusive main result. Words in brackets tell the shape of the fitted curve; partial curves, single points and poor fits give uncertain potencies.

Assay: qHTS Assay to Find Inhibitors of Chronic Active B-Cell Receptor Signaling
Conditions: ABC-DLBCL IkBa-CBG/CBR reporter, luminescence ratio (green luciferase fused to IkBa over red control in TMD8 lymphoma cells), 4 h
Outline: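 Compounds up to 46 uM were incubated four hours with TMD8 cells whose green CBG68 luciferase is fused to IkappaBalpha; red CBR luminescence normalised the signal, and concentration-effect curves were fitted to fusion, red and ratio data.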

[1] = measured here: CBR red luminescence, cell number

CCOC(=O)c1c(NC(=O)CSc2nncs2)sc(C)c1-c1ccccc1
AC50 [1]: 25.9 µM [falling, single point]

Cc1cccc(CNc2ncnc3ccc(-c4ccccc4Cl)cc23)c1
AC50 [1]: 16.4 µM [falling, single point]

COc1ccc(CN2C(=O)c3ccccc3C2C(=O)NCc2cccnc2)c(OC)c1 (stereo not drawn)
AC50 [1]: 35.5 µM [rising, single point]

Cc1cc(C)n(-c2ncnc3c2oc2ccccc23)n1
AC50 [1]: 3.55 µM [rising, single point]

Nc1cc(Nc2ccc(Br)cc2)nc(N)n1
AC50 [1]: 3.55 µM [falling, single point]

CCCCCOC(=O)C1=C(C)NC(=O)NC1c1ccc([N+](=O)[O-])cc1 (stereo not drawn)
AC50 [1]: 20 µM [falling, partial curve, poor fit]

c1ccc2c(c1)CNc1ccccc1C2
AC50 [1]: 0.13 µM [rising, full curve, poor fit]

Cc1cccc(C)c1OCC(=O)NNC(=O)CCCn1c(=O)oc2ccccc21
AC50 [1]: 6.51 µM [rising, partial curve, poor fit]

CCN(CC)S(=O)(=O)c1ccc(NN=C2CCN(C(C)C)CC2)c([N+](=O)[O-])c1
AC50 [1]: 5.62 µM [falling, full curve]

Cc1cc(C)cc(NC(=O)Nc2ccc(NC(=O)c3ccccc3O)cc2)c1
AC50 [1]: 31.6 µM [rising, single point]

O=C(Nc1cccnc1Cl)c1cc(-c2ccc(O)cc2)on1
AC50 [1]: 5.01 µM [falling, partial curve, poor fit]

O=C(O)/C=C/C(=O)Nc1ccc(Cl)c(C(=O)O)c1
AC50 [1]: 15.8 µM [falling, single point]

Cc1ccc2c(c1)C(O)(CC(=O)/C=C/C=C/c1ccccc1)C(=O)N2 (stereo not drawn)
AC50 [1]: 17.8 µM [falling, single point]

CC(=O)Nc1cccc(-c2csc(Nc3cc(C)ccn3)n2)c1
AC50 [1]: 0.447 µM [falling, full curve, poor fit]

COc1ccccc1CCNC(=O)C(=O)c1cn(CC(=O)N2CCOCC2)c2ccccc12
AC50 [1]: 2.24 µM [falling, partial curve, poor fit]

CC(=O)NC1C2CN3CCN(C2)CC1(Cc1ccccc1)C3 (stereo not drawn)
AC50 [1]: 18.4 µM [rising, single point]

CCCCNC(=O)c1ccccc1NC(=O)c1ccc2c(c1)OCO2
AC50 [1]: 35.5 µM [falling, single point]

CCOc1cccc(C(=O)Nc2ccc(N(CC)CC)cc2)c1
AC50 [1]: 1 µM [falling, partial curve, poor fit]

O=C(C[C@H]1C[C@H](C(=O)N2CCOCC2)[C@@]2(CCC3CCCC3)c3[nH]c4cc(-c5ccco5)ccc4c3CCN2C1=O)NCCc1ccccn1
AC50 [1]: 18.4 µM [falling, partial curve, poor fit]

COc1ccc(C(=O)Oc2ccc(/C=N/NC(=O)c3ccccc3OC)cc2[N+](=O)[O-])cc1
AC50 [1]: 1.3 µM [falling, partial curve, poor fit]

Cc1cc(NC(=O)CSc2ccc(-c3ccc(Br)cc3)nn2)no1
AC50 [1]: 15.8 µM [rising, single point]

FC(F)Oc1ccc(N=C2SCC3CCCCN23)cc1 (stereo not drawn)
AC50 [1]: 3.55 µM [rising, full curve]

COc1ccc(C(=O)Nc2cc(Cl)cc(Cl)c2)c(OC)n1
AC50 [1]: 15.8 µM [rising, partial curve, poor fit]

CS/C(=C/[N+](=O)[O-])Nc1cccc2c1C(C)CC2(C)C (stereo not drawn)
AC50 [1]: 14.1 µM [falling, single point]

COc1ccc(/C=C/C(=O)NC(=S)Nc2ccc(S(=O)(=O)Nc3ccc(OC)nn3)cc2)cc1
AC50 [1]: 20.6 µM [rising, single point]

Brc1ccc2nc3c(n2c1)CCCC3
AC50 [1]: 12.6 µM [rising, partial curve]

CC(=O)c1cccc(CN2CCC(C(=O)Nc3ccc(-c4cccc(C)c4)cc3)CC2)c1
AC50 [1]: 25.1 µM [falling, single point] | AC50 (measured here: IkBa-CBG green luminescence): 22.4 µM [falling, partial curve, poor fit]

Cc1ccccc1OCC(=O)Nc1ccc(N2CCN(C(=O)c3ccco3)CC2)cc1
AC50 [1]: 35.5 µM [falling, single point]

CC(=O)N1CCN(c2ccc(NC(=O)c3cccc(OCc4ccccc4)c3)cc2)CC1
AC50 [1]: 2.24 µM [falling, partial curve, poor fit]

O=C(O)c1ccc2c(c1)C(=O)N(NC(=O)c1ccccc1)C2=O
AC50 [1]: 11.2 µM [falling, partial curve, poor fit]

Cc1c(NC(=O)C(C)Sc2nccn2C)c(=O)n(-c2ccccc2)n1C (stereo not drawn)
AC50 [1]: 0.92 µM [falling, full curve]

COC(=O)CCCC1=CC2=CC(=O)C(C)(OC(=O)c3cccs3)C(=O)C2=CN1c1ccc(OC)cc1 (stereo not drawn)
AC50 [1]: 2.82 µM [rising, partial curve, poor fit]

O=c1cc(-c2ccc(F)cc2F)[nH]c2ccccc12
AC50 [1]: 13 µM [rising, partial curve, poor fit]

Cc1ccc(C(NC(=O)/C=C\c2ccc3c(c2)OCO3)C(=O)Nc2ccc3c(c2)OCO3)cc1 (stereo not drawn)
AC50 [1]: 4.11 µM [rising, full curve, poor fit]

Cc1cccc(NC(=O)CSc2nc3[nH]ncc3c(=O)n2-c2ccccc2)c1
AC50 [1]: 7.31 µM [falling, partial curve, poor fit]

COc1ccc(C(=O)OCC(=O)NCc2ccco2)cc1OC
AC50 [1]: 29.1 µM [rising, single point]

CCN(CCCNC(=O)c1cn(CC)c2ccc(S(=O)(=O)N(C)C)cc2c1=O)c1cccc(C)c1
AC50 [1]: 35.5 µM [falling, single point]

CCN1CCc2c(sc(NC(=O)Nc3ccc(Cl)c(Cl)c3)c2C(N)=O)C1
AC50 [1]: 13 µM [falling, partial curve]

COc1ccc(CCNC(=O)C(=O)NCC2OCCN2S(=O)(=O)c2ccc(OC)c(OC)c2)cc1OC (stereo not drawn)
AC50 [1]: 22.4 µM [rising, single point]

COc1ccc(C(=O)C[n+]2ccc(N(C)C)cc2)cc1
AC50 [1]: 6.31 µM [falling, single point]

O=C(COc1ccccc1)NC(=S)Nc1ccc(Br)cn1
AC50 [1]: 0.794 µM [rising, full curve, poor fit]

C/C=C(/C)C(=O)O[C@@H]1[C@H](OC(=O)C=C(C)C)c2c(ccc3ccc(=O)oc23)OC1(C)C
AC50 [1]: 2.91 µM [rising, full curve, poor fit]

COc1cc(/C=C/C(=O)O)ccc1OS(=O)(=O)c1c(C)cc(C)cc1C
AC50 [1]: 0.517 µM [falling, full curve]

COc1cc(-c2nnc(NC(=O)CCS(=O)(=O)c3ccccc3)o2)cc(OC)c1OC
AC50 [1]: 7.31 µM [rising, partial curve]

COCCOC(=O)c1[nH]c2c(c1C)C(=O)CC(c1ccc(N(C)C)cc1)C2 (stereo not drawn)
AC50 [1]: 18.4 µM [falling, partial curve, poor fit]

O=C(CN1CCN(c2nc(-c3ccc(F)cc3)cs2)CC1)NCc1ccc2c(c1)OCO2
AC50 [1]: 29.1 µM [falling, single point]

CCOC(=O)c1cccnc1SCc1cc(=O)n2ccccc2n1
AC50 [1]: 7.94 µM [falling, partial curve, poor fit]

OCCN1CCN(c2ncnc3c2cnn3-c2cccc(Cl)c2)CC1
AC50 [1]: 8.91 µM [falling, partial curve, poor fit]

CC(C)(C)NC(=O)C(c1ccc(O)cc1)N(C(=O)CCC(=O)Nc1nccs1)c1ccccc1F (stereo not drawn)
AC50 [1]: 11.2 µM [falling, partial curve]

COCCN(CC(=O)NCC1CCCO1)C(=O)CCC(=O)Nc1cc(C)ccn1 (stereo not drawn)
AC50 [1]: 0.146 µM [falling, full curve, poor fit]

COc1cccc(C2CC(c3ccccc3)n3ncnc3N2)c1 (stereo not drawn)
AC50 [1]: 7.31 µM [falling, partial curve, poor fit]

C(=N\N(Cc1ccccc1)c1ccccc1)/c1ccco1
AC50 [1]: 14.1 µM [rising, single point]

COC(=O)c1ccc(NC(=O)COc2ccccc2OC)cc1
AC50 [1]: 11.2 µM [falling, partial curve, poor fit]

COc1ccc(NC(=O)C2CCCN(S(=O)(=O)c3cccc4cccnc34)C2)cc1 (stereo not drawn)
AC50 [1]: 20.6 µM [rising, partial curve, poor fit]

CC(=O)N1CCC(N(CCCOC(C)C)S(=O)(=O)c2ccc([N+](=O)[O-])cc2)CC1
AC50 [1]: 35.5 µM [rising, single point]

CCCn1c(SCC(=O)Nc2nonc2C)nnc1-c1ccoc1C
AC50 [1]: 4.11 µM [falling, single point]

CCc1ccc(NC(=O)COC(=O)/C=C/c2ccco2)cc1
AC50 [1]: 16.4 µM [rising, single point]

COc1cc(/C=C2/SC(=S)N(Cc3ccccc3)C2=O)ccc1O
AC50 [1]: 17.8 µM [rising, partial curve]

Cc1ccccc1-n1c(-c2ccc(=O)[nH]n2)n[nH]c1=S
AC50 [1]: 35.5 µM [falling, single point]

O=C(Nc1ccc(F)cc1)c1ccc2nsnc2c1
AC50 [1]: 8.91 µM [falling, partial curve, poor fit]

c1csc(CNc2ncnc3ccc(-c4ccoc4)cc23)c1
AC50 [1]: 9.2 µM [rising, partial curve, poor fit] and 4.11 µM [rising, full curve, poor fit]

Oc1ccc(/C=N/Nc2cccc3cccnc23)c(O)c1
AC50 [1]: 23.1 µM [falling, single point]
